This is an account of results in PubChem BioAssay AID2685 (National Center for Advancing Translational Sciences (NCATS), 2010).

A short description of the assay: qHTS Assay for Lipid Storage Modulators in Drosophila S3 Cells.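 For cell number change: cells counted by Cell Tracker Red CMTPX staining in the red channel.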 As to conditions: BODIPY lipid droplet fluorescence, 18-24 h; for cell number change: measured here: cell count max response, cells fed with added oleic acid. The text has this:
NIH Molecular Libraries Probe Production Centers Network [MLPCN] NIH Chemical Genomics Center [NCGC] MLPCN Grant: 1 R03 MH085686-01 Assay Submitter (PI): Beller, Mathias; Max-Planck-Institut fur Biophysikalische Chemie NCGC Assay Overview: Storing lipids as a reservoir for energy or the anabolism of elementary metabolites is a common feature of probably all cells and is conserved from bacteria to humans. The universal cellular lipid storage organelle is the so-called lipid storage droplet (LD). Although ubiquitous, LDs share a simple structure composed of a hydrophobic core that harbors the storage lipids, which is shielded by a droplet-specific phospholipid monolayer to which proteins are attached. The current model of LD biogenesis involves an incorporation of the lipid core into the membrane leaflets of the endoplasmic reticulum (ER) followed by a subsequent budding-like maturation of a LD, which ultimately pinches off. Once released, LD volume can increase by localized lipogenesis or fusion of existing droplet. Storage lipids are re-mobilized enzymatically by lipase activity. Lipase regulation in the adipocyte is heavily studied and involves multiple components including catecholamine signaling, the LD-associated proteins Perilipin and comparative gene identification (CGI-58) and at least two lipases named hormone sensitive lipase (HSL) and adipocyte triglyceride lipase (ATGL). LD regulation outside of the adipocyte is poorly understood and only few components are known. However, there is an urgent need to learn more about ectopic fat depots as mislocalized storage of lipids, for example in the liver or muscle, is an eminent health problem associated with insulin resistance or the metabolic syndrome. We developed a laser-scanning cytometer assay to enable 1,536-well screening and combined the results of the small molecules screen with an RNAi database based on lipid storage.
Triacsin C (Sigma-Aldrich T-4540), an inhibitor of long-chain fatty acyl CoA synthetase that blocks synthesis of triglycerides, was used as a positive control for lipid under-storage. A total of 23 nL of compound solution of different concentrations were transferred to the assay plates using a Kalypsys pin tool equipped with a 1,536-pin array containing 10-nL slotted pins (FP1S10, 0.457-mm diameter, 50.8 mm long; V&P Scientific). One microliter of oleic acid (400 uM) was added, and the plate was lidded with stainless steel rubber gasket lined lids containing pinholes. […] Fluorescence was detected by excitation of the fluorophores with a 488-nm laser on an Acumen Explorer (TTP Lab Tech). The total intensity in channel 2 (500-530 nm) reflected lipid droplet accumulation. Cells were detected using channel 3 (575-640 nm) with 5-um width and 100-um depth filters. The ratio of the number of objects in PMT channel 2 over the number of objects in PMT channel 3 was also calculated. Percent activity was computed relative to an internal control (100% inhibited lipid droplet deposition due to the presence of 20 uM Triacsin C), which was added to 32 wells/plate.
(qHTS replaces the single test concentration by a dilution series.)

Setting [1] is: measured here: lipid fluorescence (Fed channel) AC50, cells fed with added oleic acid.
Where [2] appears, read: measured here: cell number channel AC50, cells fed with added oleic acid.

The list shows a part of the results. The main result of the screen is listed elsewhere. These columns were measured beside it and carry no call. The list favours compounds with an active or inconclusive main result. Words in brackets tell the shape of the fitted curve; partial curves, single points and poor fits give uncertain potencies.

Usually AC50 stands for the midpoint of the concentration-response curve, whichever way the signal moves. Lower therefore signals activity at low concentration. Take `O=C(COc1ccccc1Cl)NNC(=O)Cn1[nH]c(=O)c2ccccc2c1=O`: the cell number change turned out to be 20.7%. The AC50 under setting [1] was 11.6 µM [rising, partial curve].

For `Brc1ccccc1-c1csnn1`, the cell number change was -7.15%. For `O=C(NCCCN1CCCC1=O)c1ccc2c(=O)n(-c3ccccc3F)c(=S)[nH]c2c1`, the AC50 under setting [1] is 29.1 µM [rising, single point]. For the compound `Cc1nc2ccccc2n1Cc1ccc(Cl)cc1`, the cell number change is -12.7%. Moreover, under setting [1], the AC50 was 8.2 µM [falling, single point]. Consider `COCCN1C(=O)C(=O)/C(=C(/O)c2ccc(S(=O)(=O)N3CCOCC3)cc2)C1c1ccc(O)c(OC)c1` (stereo not drawn), for which the cell number change was determined as 10.1%. In addition, under setting [1], the AC50 was 0.651 µM [falling, single point].

As to `Cn1c(=O)c2[nH]c(N=NNc3ccccc3F)nc2n(C)c1=O`, the cell number change came out at 5.44%. Turning to `CC(C)CCNC(=O)c1cccnc1Sc1ccccc1`, the cell number change worked out at 7.62%. In addition, the AC50 under setting [1] was 29.1 µM [rising, single point]. In the case of `Fc1ccc2nc(N3CCOCC3)sc2c1`, the cell number change came out at 9.88%.

As to `Cc1ccc(CNc2oc(-c3cccs3)nc2C#N)cc1`, the cell number change is 80.8%. For `COc1ccccc1CCNS(=O)(=O)c1cc2c3c(c1)CCN3C(=O)CC2`, the cell number change came out at 24.9%.

For `CCCNC(=O)c1cc(Cl)c(NC(=O)C2=CSCCO2)cc1OC`, the AC50 under setting [2] was 0.0731 µM [falling, full curve, poor fit]. As to `C[C@]12C(=O)N(c3ccc(C(F)(F)F)cc3)C(=O)N1[C@@H]1c3ccccc3OC[C@@H]1[C@H]2c1ccccc1`, the AC50 under setting [1] was 6.51 µM [falling, single point]. On to `Cc1cc(OCCCCN2C(=O)NC(C)(C)C2=O)cc(C)c1Cl`, for which the cell number change worked out at 67.2%. The AC50 under setting [2] is 20.6 µM [rising, single point]. In the case of `Cc1cc(=O)oc2cc(OC(C(=O)O)c3ccccc3)ccc12` (stereo not drawn), the cell number change was determined as 22.8%. As to `COc1ccc(C(=O)N2CCN(C(=O)c3ccc(-c4ccccc4)cc3)CC2)cc1OC`, the cell number change is -26%. Besides, the AC50 under setting [1] was 2.59 µM [falling, full curve, poor fit]. For the compound `O=C(OCCc1cc2ccccc2c(=O)o1)c1ccccc1C(F)(F)F`, the cell number change was -16.7%. Moreover, the AC50 under setting [2] was 0.461 µM [falling, single point]. Besides, the AC50 under setting [1] is 1.16 µM [falling, single point].

With `COc1ccc2c(c1OC)C(=O)NC(C)=C(C(=O)OC(C)(C)C)C2O` (stereo not drawn), the AC50 under setting [1] was 29.1 µM [falling, single point]. As to `Cc1cc(C(=O)O)c(S(C)(=O)=O)s1`, the cell number change was -29.4%. Moreover, the AC50 under setting [2] was 0.13 µM [falling, full curve, poor fit]. Moreover, under setting [1], the AC50 was 1.3 µM [falling, full curve]. For the compound `OCCCNc1cc(-c2ccnc(Nc3cccc(Cl)c3)n2)ccn1`, the AC50 under setting [1] is 2.31 µM [falling, partial curve]. For `NC(=O)CC[C@H](NC(=O)c1ccc(F)cc1)C(=O)OCC(=O)Nc1c(F)c(F)c(F)c(F)c1F`, the cell number change stood at 32.5%. In addition, under setting [1], the AC50 was 25.9 µM [rising, single point]. On to `Brc1cnc(N2CCOCC2)nc1N1CCCCC1`, for which the AC50 was 4.61 µM [rising, partial curve] under setting [2] and 0.58 µM [falling, single point] under setting [1]. For `CCCCc1ccc(S(=O)(=O)Nc2ccc(C)c(NS(C)(=O)=O)c2)cc1`, the AC50 under setting [1] was 0.00461 µM [falling, full curve, poor fit]. As to `Cn1c(=O)n(C)c2cc([N+](=O)[O-])c(N3CCN(S(C)(=O)=O)CC3)cc21`, the cell number change came to 2.14%. In addition, the AC50 under setting [1] is 29.1 µM [falling, single point]. With `Cc1ccc(CN2CCC(Oc3cccc(C(=O)N(C)CCN(C)C)c3)CC2)cc1C`, the cell number change is -9.49%. Besides, under setting [1], the AC50 is 0.103 µM [falling, full curve, poor fit]. For `CCOc1ccccc1N1CCN(C(=O)c2cc[n+]([O-])cc2)CC1`, the cell number change stood at 27%. For `Cc1ccc2[nH]c3c(N4CCN(Cc5ccc6c(c5)OCO6)CC4)ncnc3c2c1`, the cell number change was -30.1%. Moreover, under setting [2], the half-maximal activity concentration (AC50) is 0.92 µM [falling, full curve]. The AC50 under setting [1] was 2.06 µM [falling, full curve]. `COc1ccccc1N(CC(O)CN1C(C)CCCC1C)S(=O)(=O)c1ccccc1` (stereo not drawn): the cell number change was determined as 25%. As for `CC(=O)c1ccc(NC(=O)c2ccc(-n3cnnn3)cc2)cc1`, the cell number change was found to be 12.5%. Turning to `O=S(=O)(NC1CC(NS(=O)(=O)OCC(Cl)(Cl)Cl)C2CCCCC12)OCC(Cl)(Cl)Cl` (stereo not drawn), the cell number change was -26.5%. The AC50 under setting [1] is 29.1 µM [falling, single point]. Regarding `CCCCCCCSc1nsc(N)n1`, the cell number change was -38.2%. Besides, the AC50 under setting [2] is 20.6 µM [falling, single point]. Besides, the AC50 under setting [1] was 23.1 µM [falling, partial curve, poor fit]. For the compound `O=C(NNc1c2ccccc2nc2ccccc12)c1cc2ccccc2cc1O`, the cell number change is -73.1%. In addition, the AC50 under setting [2] was 5.17 µM [falling, full curve]. The AC50 under setting [1] was 4.61 µM [falling, full curve]. Regarding `O=Cc1cc(Cl)ccc1OCCN1CCC(Cc2ccccc2)CC1`, the cell number change is -25.8%. Moreover, the AC50 under setting [1] was 29.1 µM [falling, single point]. With `CCc1noc(C)c1C(=O)Nc1cc(S(=O)(=O)N2CCOCC2)ccc1OC(C)C`, the cell number change was found to be 114%. Also, the AC50 under setting [2] was 10.3 µM [rising, partial curve]. Consider `O=C(COC(=O)/C=C/c1nc2ccccc2s1)Nc1ccccc1Oc1ccccc1`, for which the cell number change worked out at 18.4%. Besides, under setting [1], the AC50 is 18.4 µM [rising, partial curve].
